From publication PMC4227020
Results are given in words; binding and its absence hold for the method and conditions named. For some assays here: Binding seen in cells or lysates may run through a third protein. Some entries that bind do so weakly or less than the wild type. Where a sequence is shown, tags or fusion partners need not be part of it. One block for each molecule: values may come before it.

Protein sequences, listed by entry. Tags and fused reporters are not part of them. Lines headed by an entry give the natural chain unless they say otherwise; changes in a name come on top.
UniProt P59215: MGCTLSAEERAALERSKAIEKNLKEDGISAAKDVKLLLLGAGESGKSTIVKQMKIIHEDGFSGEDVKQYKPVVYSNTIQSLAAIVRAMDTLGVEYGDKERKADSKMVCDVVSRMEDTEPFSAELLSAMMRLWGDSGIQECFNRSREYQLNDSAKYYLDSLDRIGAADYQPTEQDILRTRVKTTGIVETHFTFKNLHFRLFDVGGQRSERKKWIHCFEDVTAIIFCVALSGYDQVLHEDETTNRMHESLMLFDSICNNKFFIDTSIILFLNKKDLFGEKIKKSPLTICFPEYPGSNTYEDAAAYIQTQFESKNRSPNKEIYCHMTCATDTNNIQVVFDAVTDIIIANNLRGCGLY

Assays:
[1] = target: T1, Hemagglutinin (HA)-tagged Necdin (HA-Necdin) (UniProt P25233); test: co-IP; lysates of 293T cells co-expressing FLAG-Gα constructs and HA-Necdin; precipitated with anti-Necdin antibodies; blots with anti-FLAG and anti-Necdin
T1 sequence: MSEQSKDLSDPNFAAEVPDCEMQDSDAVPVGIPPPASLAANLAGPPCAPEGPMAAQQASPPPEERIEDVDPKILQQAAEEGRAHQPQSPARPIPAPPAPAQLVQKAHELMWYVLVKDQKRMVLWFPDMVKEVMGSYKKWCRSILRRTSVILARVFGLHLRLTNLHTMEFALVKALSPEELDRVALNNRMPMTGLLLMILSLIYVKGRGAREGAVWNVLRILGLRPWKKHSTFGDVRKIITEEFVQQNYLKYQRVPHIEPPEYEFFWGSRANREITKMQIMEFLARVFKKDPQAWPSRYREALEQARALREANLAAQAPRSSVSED

[2] = target: T2, Glutathione-S-transferase (GST)-tagged Necdin (GST-Necdin) (UniProt P25233); test: pull-down; purified His-Gαo (600 nM) pre-incubated with 30 μM GDP and AlF4- (10 mM NaF, 30 μM AlCl3) 1 h at 30°C in HEMNDL buffer pH 8.0, 150 mM NaCl; GST-Necdin (200 nM) added, 20 min at 20°C; captured on glutathione-Sepharose 4B beads 1 h at 4°C; blots with anti-Gαo and anti-Necdin; both purified
T2 sequence: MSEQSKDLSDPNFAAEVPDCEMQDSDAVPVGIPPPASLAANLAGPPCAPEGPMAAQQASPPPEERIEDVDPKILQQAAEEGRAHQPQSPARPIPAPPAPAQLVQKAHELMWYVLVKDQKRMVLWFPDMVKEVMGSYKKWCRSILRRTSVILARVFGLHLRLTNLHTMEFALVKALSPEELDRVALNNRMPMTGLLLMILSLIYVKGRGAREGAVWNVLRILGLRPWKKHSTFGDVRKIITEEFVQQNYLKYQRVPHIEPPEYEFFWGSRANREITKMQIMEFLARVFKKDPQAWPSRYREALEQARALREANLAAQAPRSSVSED

[3] = target: Constitutively activated mutant of Gαo (GαoQ205L) (UniProt P59215); test: co-IP; lysates of 293T cells co-transfected with GαoWT or GαoQ205L and FLAG-Necdin; precipitated with anti-Gαo (or anti-FLAG); blots with anti-FLAG and anti-Gαo; PBTX buffer
Wild type of Gαo (GαoWT) = Wild type of Gαo (GαoWT) (UniProt P59215); test: as above
GST-Gαo = GST-Gαo (UniProt P59215); test: pull-down; GST-Gαo on glutathione-Sepharose 4B beads; 293T cell extract (500 μg) expressing FLAG-Necdin; 1 h at 37°C in PBTX buffer; blot with anti-FLAG; only the target purified

Molecule: FLAG-Gαo (from UniProt P59215 1-354)
binding [1]: binds

binding [2]: binds
Molecule: His-Gαo (from UniProt P59215 1-354)

binding [3]: binds | binding (Wild type of Gαo (GαoWT)): binds | binding (GST-Gαo): binds
B1: FLAG-tagged Necdin (FLAG-Necdin) (protein, UniProt P25233 1-325)
chain: MSEQSKDLSDPNFAAEVPDCEMQDSDAVPVGIPPPASLAANLAGPPCAPEGPMAAQQASPPPEERIEDVDPKILQQAAEEGRAHQPQSPARPIPAPPAPAQLVQKAHELMWYVLVKDQKRMVLWFPDMVKEVMGSYKKWCRSILRRTSVILARVFGLHLRLTNLHTMEFALVKALSPEELDRVALNNRMPMTGLLLMILSLIYVKGRGAREGAVWNVLRILGLRPWKKHSTFGDVRKIITEEFVQQNYLKYQRVPHIEPPEYEFFWGSRANREITKMQIMEFLARVFKKDPQAWPSRYREALEQARALREANLAAQAPRSSVSED
